The list shows only some results of the screen, not a fair sample: it is rich in T/C values a quarter to a half above the control, in often repeated tests (any T/C) and in doses without a T/C. Further doses and runs are listed elsewhere. T/C gives the treated animals as a percentage of the vehicle group. Some doses have a count of surviving animals in place of a T/C: the source files T/C as zero there, which appears to mark a toxic dose or a test without result, not a measured value. Some survivor counts are full or nearly so, which does not show that the dose was tolerated: survival well below the control is almost never listed, so the zero probably covers shortened survival too. Survivors were counted at the toxicity check, usually on the fifth day, unless a day is given; later deaths do not show. Schedule codes are those of the source, read here as Q, the interval in days (D) or hours (H), X, the number of doses. Counts like (3×) count equal records among those shown. Some doses were run more than once; their values stand side by side, smallest first. For survival time, the PubChem record calls one and a half times the control and up active, and a quarter to a half above the control has no call in these data; cut-offs in other NCI protocols can differ. Some T/C values carry the count of animals alive at the toxicity check (mostly the fifth day); without a count, all were alive then. Where a SMILES comes first, the peptide text is derived from it.
System: B6C3F1 mice, B16 melanoma ip, median survival T/C
Assay: NCI In Vivo Anticancer Drug Screen. Data for tumor model B16 Melanoma (intraperitoneal) in B6C3F1 mice
Settings: T/C endpoint: median survival time, higher T/C = longer survival
Method: The antitumor activity of compounds was measured in mice bearing transplantable tumors. Survival or tumor size were measured and the results are expressed as the measurement made in the treated group (T) divided by the measurement made in the vehicle treated control group (C). The tumor model used in this assay is B16 Melanoma (intraperitoneal) in B6C3F1 mice

[1] = dose: 400.0 mg/kg/injection, schedule: Q01DX009 (ip), vehicle: suspension in saline
[2] = dose: 100.0 mg/kg/injection, schedule: Q01DX009 (ip), vehicle: saline
[3] = dose: 400.0 mg/kg/injection, schedule: Q01DX009 (ip), vehicle: saline
[4] = dose: 12.5 mg/kg/injection, schedule: Q01DX009 (ip), vehicle: saline with Tween-80
[5] = dose: 100.0 mg/kg/injection, schedule: Q01DX009 (ip), vehicle: saline with Tween-80
[6] = dose: 200.0 mg/kg/injection, schedule: Q01DX009 (ip), vehicle: saline with Tween-80
[7] = dose: 50.0 mg/kg/injection, schedule: Q01DX009 (ip), vehicle: saline with Tween-80
[8] = dose: 6.25 mg/kg/injection, schedule: Q01DX009 (ip), vehicle: saline with Tween-80
[9] = dose: 25.0 mg/kg/injection, schedule: Q01DX009 (ip), vehicle: saline with Tween-80
[10] = dose: 400.0 mg/kg/injection, schedule: Q01DX009 (ip), vehicle: saline with Tween-80
[11] = dose: 6.25 mg/kg/injection, schedule: Q01DX009 (ip), vehicle: Klucel (hydroxypropylcellulose) (HPC)
[12] = dose: 100.0 mg/kg/injection, schedule: Q01DX009 (ip), vehicle: Klucel (hydroxypropylcellulose) (HPC)
[13] = dose: 4.0 mg/kg/injection, schedule: Q01DX009 (ip), vehicle: Klucel (hydroxypropylcellulose) (HPC)

## CS(=O)(=O)Nc1ccc(C(=O)CCN2CCCCCC2)cc1
[1]
  survivor count: 3 of 10

## CC(CNC(=O)CCOS(C)(=O)=O)NC(=O)CCOS(C)(=O)=O (centres undefined)
dose: 50.0 mg/kg/injection, schedule: Q01DX009 (ip), vehicle: saline
  T/C: 132 % of control
[2]
  T/C: 132 % of control [7 of 9 alive]
[3]
  survivor count: 10 of 10 and 9 of 9

## C[C@@](O)(/C=C/[C@H]1CC=CC(=O)O1)[C@@H](C[C@@H](O)\C=C/C=C\C=C\CO)OP(=O)(O)O
dose: 50.0 mg/kg/injection, schedule: Q01DX009 (ip), vehicle: other
  survivor count: 0 of 10 and 2 of 10

## CS(=O)(=O)CS(=O)(=O)OCCCl
[4]
  T/C: 139 % of control
[5]
  survivor count: 8 of 10
[6]
  survivor count: 0 of 10 and 8 of 10

## CCCCCCCCCCCCNCCCc1ccccc1
[7]
  survivor count: 0 of 7

## Oc1cc2ccccc2c(-c2c(O)c(O)cc3ccccc23)c1O
[8]
  T/C: 128 % of control
[4]
  T/C: 94, 95, 127, 137 % of control
[9]
  T/C: 105 [9 of 10 alive], 114, 116, 137 % of control
[7]
  T/C: 108, 113, 128 [8 of 9 alive], 137 % of control
[5]
  T/C: 113 and 167 % of control [9 of 10 alive]
  survivor count: 8 of 10
[6]
  survivor count: 7 of 10 and 10 of 10
[10]
  survivor count: 0 of 10 and 8 of 10

## CC1=CC(=Nc2ccc(N(CCCl)CCCl)cc2)C=C(C)C1=O
dose: 3.12 mg/kg/injection, schedule: Q01DX009 (ip), vehicle: Klucel (hydroxypropylcellulose) (HPC)
  T/C: 135 % of control
[11]
  T/C: 135 % of control
dose: 25.0 mg/kg/injection, schedule: Q01DX009 (ip), vehicle: Klucel (hydroxypropylcellulose) (HPC)
  T/C: 128 % of control
dose: 50.0 mg/kg/injection, schedule: Q01DX009 (ip), vehicle: Klucel (hydroxypropylcellulose) (HPC)
  survivor count: 10 of 10 (2×)
[12]
  survivor count: 10 of 10 and 7 of 7

## Cc1c2ccnc(C(N)=O)c2c(C)c2c1[nH]c1ccccc12
dose: 800.0 mg/kg/injection, schedule: Q01DX009 (ip), vehicle: distilled water + Tween-80
  survivor count: 10 of 10
dose: 1200.0 mg/kg/injection, schedule: Q01DX009 (ip), vehicle: distilled water + Tween-80
  survivor count: 9 of 10
dose: 1600.0 mg/kg/injection, schedule: Q01DX009 (ip), vehicle: distilled water + Tween-80
  survivor count: 0 of 10

## NC(N)=NS(=O)(=O)c1ccc(NCc2c3ccccc3nc3ccccc23)cc1
dose: 12.5 mg/kg/injection, schedule: Q01DX009 (ip), vehicle: Klucel (hydroxypropylcellulose) (HPC)
  T/C: 144 % of control

## O=C(Oc1ccc(-c2ccc(Br)cc2)cc1)c1ccco1
[4]
  survivor count: 10 of 10

## O=P1(N(CCCl)CCCl)NCCCO1 (centres undefined)
dose: 25.0 mg/kg/injection, schedule: Q01DX009 (ip), vehicle: saline
  T/C: 148 % of control
dose: 37.5 mg/kg/injection, schedule: Q01DX005 (iv), vehicle: saline
  T/C: 125 % of control
dose: 75.0 mg/kg/injection, schedule: Q01DX005 (ip), vehicle: saline
  T/C: 148 % of control
dose: 100.0 mg/kg/injection, schedule: Q01DX001 (ip), vehicle: saline
  T/C: 131 and 146 % of control
[2]
  survivor count: 10 of 10
dose: 150.0 mg/kg/injection, schedule: Q01DX001 (ip), vehicle: saline
  T/C: 145 % of control
dose: 150.0 mg/kg/injection, schedule: Q01DX001 (iv), vehicle: saline
  T/C: 134 % of control
dose: 150.0 mg/kg/injection, schedule: Q01DX005 (iv), vehicle: saline
  survivor count: 10 of 10

## O=C(Nc1ccccc1)c1c(O)[nH]c(=S)[nH]c1=O
dose: 12.0 mg/kg/injection, schedule: Q01DX009 (ip), vehicle: saline with Tween-80
  T/C: 128 % of control [9 of 10 alive]
[9]
  T/C: 125, 130, 137, 158 % of control
[7]
  T/C: 141, 152, 157, 169 % of control [9 of 10 alive]
[5]
  T/C: 167 [9 of 10 alive], 183 [8 of 10 alive] (2×), 185 [9 of 10 alive], 193 % of control
dose: 150.0 mg/kg/injection, schedule: Q01DX009 (ip), vehicle: saline with Tween-80
  survivor count: 4 of 10
[6]
  survivor count: 0 of 10, 3 of 10, 4 of 10

## NCC(=O)NC(Cc1ccc(O)cc1)C(=O)O (centres undefined) (HELM PEPTIDE1{G.[O=C(O)C(Cc1ccc(O)cc1)N[*:1]]}$$$$V2.0)
[3]
  T/C: 125 % of control

## C1CNCCN1
[1]
  survivor count: 3 of 10

## CC(=O)CC(c1ccccc1)c1c(O)c2ccccc2oc1=O (centres undefined)
dose: 0.1 mg/kg/injection, schedule: Q01DX009 (ip), vehicle: saline with Tween-80
  T/C: 125 % of control
dose: 0.4 mg/kg/injection, schedule: Q01DX009 (ip), vehicle: saline with Tween-80
  survivor count: 10 of 10
dose: 0.8 mg/kg/injection, schedule: Q01DX009 (ip), vehicle: saline with Tween-80
  survivor count: 9 of 10

## O=NN(CCF)C(=O)NC1CCC(=O)NC1=O (centres undefined)
dose: 120.0 mg/kg/injection, schedule: Q01DX001 (ip), vehicle: saline
  survivor count: 5 of 10 on day 6

## CC(O)C1(O)C(O)CC(OC2c3cc4c(c(O)c3[C@@H]3C[C@@]2(C)OC32C=c3cc[nH]c3=N2)C(=O)c2cccc(O)c2C4=O)OC1C (some centres undefined)
[8]
  T/C: 137 % of control
[4]
  T/C: 132 % of control
[9]
  T/C: 146 % of control
[7]
  survivor count: 10 of 10
[5]
  survivor count: 1 of 10

## CCN(C)N=Nc1ccc(C(N)=O)cc1
[12]
  T/C: 142 % of control
  survivor count: 10 of 10
dose: 200.0 mg/kg/injection, schedule: Q01DX009 (ip), vehicle: Klucel (hydroxypropylcellulose) (HPC)
  survivor count: 10 of 10

## CN=C(N)N/N=C(\C)c1ccc2c(c1)Cc1ccccc1-2
[6]
  survivor count: 9 of 10
[10]
  survivor count: 8 of 10

## COc1ccc([C@@]23Oc4cc(OC)cc(OC)c4[C@]2(O)[C@H](O)[C@H](C(=O)N(C)C)[C@H]3c2ccccc2)cc1
dose: 1.0 mg/kg/injection, schedule: Q01DX009 (ip), vehicle: Klucel (hydroxypropylcellulose) (HPC)
  T/C: 129 % of control
[13]
  survivor count: 0 of 10, 6 of 10, 8 of 10

## O=C1[C@H]2CCC[C@H]2[C@H]2CCC[C@@H]12
[6]
  survivor count: 10 of 10

## CO[C@@]12[C@@H]3N[C@@H]3CN1C1=C(C(=O)C(NCc3ccco3)=C(C)C1=O)[C@@H]2COC(N)=O
dose: 1.12 mg/kg/injection, schedule: Q01DX001 (ip), vehicle: distilled water + Tween-80
  T/C: 125 % of control
dose: 2.25 mg/kg/injection, schedule: Q01DX001 (ip), vehicle: distilled water + Tween-80
  T/C: 148 % of control

## CN(C)CCNc1ccc(CO)c2sc3ccc(O)cc3c(=O)c12
dose: 138.88 mg/kg/injection, schedule: Q01DX009 (ip), vehicle: saline with Tween-80
  survivor count: 10 of 10

## CC[C@]1(O)C[C@H](OC2CC(N(C)C)C(OC3CC(O)C(O)C(C)O3)C(C)O2)c2c(cc3c(c2O)C(=O)c2c(O)ccc(O)c2C3=O)[C@H]1C(=O)OC (some centres undefined)
dose: 0.5 mg/kg/injection, schedule: Q01DX009 (ip), vehicle: Klucel (hydroxypropylcellulose) (HPC)
  T/C: 130 % of control
[13]
  survivor count: 10 of 10

## CCCCCCC/C=C/C(=O)OC1C(OC2C(OC(CCCCCCC)CC(=O)OC(CCCCCCC)CC(=O)O)OC(C)C(O)C2O)OC(C)C(O)C1O (centres undefined)
[11]
  survivor count: 10 of 10

## CC(=S)NC(O)C(=O)c1ccccc1 (centres undefined)
dose: 200.0 mg/kg/injection, schedule: Q01DX009 (ip), vehicle: distilled water + Tween-80
  survivor count: 3 of 10
dose: 400.0 mg/kg/injection, schedule: Q01DX009 (ip), vehicle: distilled water + Tween-80
  survivor count: 0 of 10
[10]
  survivor count: 5 of 10
